Assay [1] has as its target 3XFLAG-tagged mLLP (mouse LLP homolog) (mouse) (UniProt Q9D945). Kind of assay: co-IP; nuclear extracts of HEK293T cells transfected with 3XFLAG-tagged mLLP or control plasmid; dialysed into IP buffer (25 mM Tris pH 7.4, 150 mM NaCl, 0.1% Triton X-100); anti-FLAG agarose beads overnight at 4 °C; immunoblot. In general terms: In western blotting, separated proteins are transferred to a membrane and probed.

Amino acid sequences for entries named in this document (tags omitted).
UniProt Q9D945: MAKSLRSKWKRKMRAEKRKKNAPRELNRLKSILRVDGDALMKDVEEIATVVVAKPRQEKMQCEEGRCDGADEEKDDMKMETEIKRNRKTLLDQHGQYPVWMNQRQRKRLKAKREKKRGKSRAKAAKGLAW
UniProt P20226: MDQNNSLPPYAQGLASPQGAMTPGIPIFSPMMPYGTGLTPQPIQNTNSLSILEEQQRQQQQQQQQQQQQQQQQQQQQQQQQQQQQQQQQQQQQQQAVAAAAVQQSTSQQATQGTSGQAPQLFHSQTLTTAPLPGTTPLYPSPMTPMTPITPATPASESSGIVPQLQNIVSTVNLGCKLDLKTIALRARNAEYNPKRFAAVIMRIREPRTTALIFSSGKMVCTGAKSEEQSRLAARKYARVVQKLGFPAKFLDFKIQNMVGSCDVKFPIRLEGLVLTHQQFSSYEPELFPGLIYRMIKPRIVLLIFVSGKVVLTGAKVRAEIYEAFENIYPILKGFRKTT

Assay [2] has the same target. Described as above. This is another data set of the same source.

Like-named read-outs stand apart in the source and are kept apart here. No constants are given. Whether binding was seen depends on the method and setting. Binding seen in cells or lysates may run through a third protein. Some entries that bind do so weakly or less than the wild type.

Consider “TATA-binding protein (TBP) (from UniProt P20226 1-339)”, for which the binding result in assay [1] was “binds”.

B1: CCCTC-binding factor (CTCF) (protein, UniProt P49711 1-727)
chain: MEGDAVEAIVEESETFIKGKERKTYQRRREGGQEEDACHLPQNQTDGGEVVQDVNSSVQMVMMEQLDPTLLQMKTEVMEGTVAPEAEAAVDDTQIITLQVVNMEEQPINIGELQLVQVPVPVTVPVATTSVEELQGAYENEVSKEGLAESEPMICHTLPLPEGFQVVKVGANGEVETLEQGELPPQEDPSWQKDPDYQPPAKKTKKTKKSKLRYTEEGKDVDVSVYDFEEEQQEGLLSEVNAEKVVGNMKPPKPTKIKKKGVKKTFQCELCSYTCPRRSNLDRHMKSHTDERPHKCHLCGRAFRTVTLLRNHLNTHTGTRPHKCPDCDMAFVTSGELVRHRRYKHTHEKPFKCSMCDYASVEVSKLKRHIRSHTGERPFQCSLCSYASRDTYKLKRHMRTHSGEKPYECYICHARFTQSGTMKMHILQKHTENVAKFHCPHCDTVIARKSDLGVHLRKQHSYIEQGKKCRYCDAVFHERYALIQHQKSHKNEKRFKCDQCDYACRQERHMIMHKRTHTGEKPYACSHCDKTFRQKQLLDMHFKRYHDPNFVPAAFVCSKCGKTFTRRNTMARHADNCAGPDGVEGENGGETKKSKRGRKRKMRSKKEDSSDSENAEPDLDDNEDEEEPAVEIEPEPEPQPVTPAPPPAKKRRGRPPGRTNQPKQNQPTAIIQVEDQNTGAIENIIVEVKKEPDAEPAEGEEEEAQPAATDAPNGDLTPEMILSMMDR
As to B1, the binding result in assay [2] was “binds”.

Source of the values: PMC4790632.
